From ChEMBL document CHEMBL3988442, “University of Dundee, Small-Polar-MMV Screening Library” (2021).

Results are given as percent effect. The controls that fix the scale are not given in the record; negative values are as filed. Compounds were drawn at random from those tested, without regard to their results. Two or more numbers in one place are separate tests of the same structure; such repeats can differ widely.

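Viability assay of Plasmodium falciparum sporozoites; the read-out is not stated. The concentration is filed as 10 mM, unlikely as a test dose, so the dose is not known. Higher reads as lower viability (inferred: compounds with an IC50 in retests scored well above the rest). Strong results were mostly tested again. About 34,000 compounds were tested under these conditions; 0.84% (about 280) showed 50% or more at least once.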

{"smiles": "[H][C@]12CC[C@]([H])(CN(C(=O)c3cccnc3)C1)N(Cc1cc(F)ccc1F)C2", "percent effect": -9.327}
{"smiles": "Cc1cnn(CCNCc2ccccc2OCc2cccnc2)c1", "percent effect": 8.592}
{"smiles": "[H][C@]12C[C@H](C(=O)NC)N(S(C)(=O)=O)[C@@]1([H])CN(C(=O)c1cscn1)C2", "percent effect": 6.818}
{"smiles": "CC(=O)NC1CCN(c2ccnc(C3CCNCC3)c2)CC1.O=C(O)C(F)(F)F", "percent effect": 8.395}
{"smiles": "CNS(=O)(=O)Cc1ccc(CNC(=O)c2ccccn2)cc1", "percent effect": -0.8458}
{"smiles": "[H][C@@]12COC[C@]1(COCC(=O)N1CCCC1)CN(S(C)(=O)=O)C2", "percent effect": -0.2431}
{"smiles": "O=C(Cc1cccc(O)c1)N1CCC2(CC1)c1ccccc1CC2O", "stereo": "stereo not given", "percent effect": 8.158}
{"smiles": "CN(C)c1ccccc1C(=O)N1CCCC(c2ccc(C(=O)O)cc2)C1", "stereo": "stereo not given", "percent effect": 12.35}
{"smiles": "C[C@]1(O)CCN(Cc2nccs2)C[C@@H]1Oc1cccc(F)c1", "percent effect": 13.89}
{"smiles": "Cc1nc(C2CCCN(C(=O)c3scnc3C)C2)no1", "stereo": "stereo not given", "percent effect": 0.8959}
{"smiles": "O=C(O)C(F)(F)F.[H][C@@]12CCN(C(=O)c3ccoc3)C[C@]1(COc1ncccc1F)CCO2", "percent effect": -2.076}
{"smiles": "O=C(Cc1csc(-c2ccccc2F)n1)NCc1ccc(C(=O)O)cc1", "percent effect": 6.319}
{"smiles": "Cc1nn(C)c(C)c1-c1ccc(=O)n(C(C)C(=O)NC2CCCCC2)n1", "stereo": "stereo not given", "percent effect": 0.5133}
{"smiles": "COc1cccc(Cc2nnc(SC3CCOC3=O)o2)c1", "stereo": "stereo not given", "percent effect": -6.867}
{"smiles": "Cn1cc(CN2CCC3(CC2)NC(=O)CC3c2ccncc2)cn1.O=C(O)C(F)(F)F.O=C(O)C(F)(F)F", "stereo": "stereo not given", "percent effect": -5.839}
{"smiles": "CCCn1cc(CN2CCC(c3[nH]ncc3S(C)(=O)=O)C2)cn1", "stereo": "stereo not given", "percent effect": 7.531}
{"smiles": "Cn1cc(C[C@H]2[C@H](N3CCOCC3)CCN2C(=O)c2ccc[nH]2)cn1", "percent effect": -3.733}
{"smiles": "Cc1nc(CN2CCN(C(=O)NC(C)c3cccnc3)CC2)cs1", "stereo": "stereo not given", "percent effect": 12.08}
{"smiles": "Cn1cc(CNc2cnn(CCO)c2)c(-c2ccncc2)n1", "percent effect": -17.37}
{"smiles": "Cc1cccc(C2(C(=O)NCC(C)CN3CCCC3=O)CC2)c1", "stereo": "stereo not given", "percent effect": -10.88}
{"smiles": "CCN1N=C(C(=O)N2CCCC(c3nc(C)cs3)C2)CCC1=O", "stereo": "stereo not given", "percent effect": -0.9109}
{"smiles": "N#Cc1ccccc1CN1CCc2sccc2C1", "percent effect": -19.61}
{"smiles": "[H][C@]12CC[C@]([H])(CN(C(=O)c3ccccc3)C1)N(Cc1cc(F)ccc1Cl)C2", "percent effect": -13.95}
{"smiles": "COc1cccc(Cn2ncnc2CNC(C)=O)c1", "percent effect": "-6.936 & -4.731"}
{"smiles": "CN(C)Cc1nc(-n2cnc(C(=O)NCC3CC3)c2)n2ccccc12", "percent effect": 7.449}
{"smiles": "O=C(O)c1cc(S(=O)(=O)N2CCOc3ccccc32)ccc1Br", "percent effect": 10.52}
{"smiles": "COCC1CC2(CCN(Cc3ccoc3)CC2)CN1C(C)C.O=C(O)C(F)(F)F.O=C(O)C(F)(F)F", "stereo": "stereo not given", "percent effect": 8.759}
{"smiles": "CCC(O)CN1CCN(C(=O)c2ccc(Cn3cccc3)cc2)CC1", "stereo": "stereo not given", "percent effect": 15.2}
{"smiles": "O=C(O)C(F)(F)F.O=C(O)C(F)(F)F.[H][C@]12CCN(Cc3ccccn3)C[C@@]1([H])OCCN(Cc1csc(C)n1)C2", "percent effect": -8.029}
{"smiles": "Cc1ccc(C(=O)N2CC(=O)N(Cc3ccco3)CC(O)C2)cc1", "stereo": "stereo not given", "percent effect": -32.97}
{"smiles": "CC/C=C(/C)C(=O)NCc1ccnc(OC2CCOCC2)c1", "percent effect": 8.788}
{"smiles": "Cc1cnc(CN2CCC(N(C)Cc3nnc(C4CC4)n3C)C2)cn1", "stereo": "stereo not given", "percent effect": -1.845}
{"smiles": "N[C@H]1CCCN(S(=O)(=O)c2ccc(C(=O)NCC(F)F)cc2)C1", "percent effect": -7.054}
{"smiles": "CN(C)Cc1ccc(C2CCCCN2C(=O)c2cc(=O)[nH]c(=O)[nH]2)cc1", "stereo": "stereo not given", "percent effect": -6.064}
{"smiles": "c1ccc(OC2CCCC2)c(CNC2CCc3ncnn3C2)c1", "stereo": "stereo not given", "percent effect": 16.1}
{"smiles": "O=C(c1csc(-c2cccs2)n1)N1CCCC1Cn1cccn1", "stereo": "stereo not given", "percent effect": 6.275}
{"smiles": "COc1ccc(-c2noc(C(=O)NCCN3CCCCC3)n2)cc1OC", "percent effect": -2.632}
{"smiles": "CC(NC(=O)Nc1ccc(F)c(F)c1)c1nc[nH]n1", "stereo": "stereo not given", "percent effect": "10.91 & 12.8"}
{"smiles": "C[S+]([O-])c1nncn1CC(=O)c1ccc2c(c1)CCO2", "stereo": "stereo not given", "percent effect": -15.69}
{"smiles": "COCCN1CCC(N(Cc2noc(C3CC3)n2)C(C)=O)C1", "stereo": "stereo not given", "percent effect": -8.271}
{"smiles": "CC(C)(C)NC(=O)c1nn(C2CCS(=O)(=O)C2)c2c1CCCC2", "stereo": "stereo not given", "percent effect": "-26.31 & -18.19"}
{"smiles": "Cc1cccc(C2(CNC(=O)CCN3C(=O)CCC3=O)CCCC2)c1", "percent effect": -15.87}
{"smiles": "CCC(C)N1Cc2c(C(=O)N3CCOCC3)nn(C)c2C1.O=C(O)C(F)(F)F", "stereo": "stereo not given", "percent effect": 6.564}
{"smiles": "CCC(C)C(=O)NCc1ccc(-n2cncn2)nc1", "stereo": "stereo not given", "percent effect": 14.72}
{"smiles": "CNC(=O)Cn1cc(C#N)c(=O)c2cc(Br)ccc21", "percent effect": -8.584}
{"smiles": "CCn1cc(NC(=O)NCC(c2ccsc2)N(C)C)cn1", "stereo": "stereo not given", "percent effect": "-36.36 & -7.315 & -30.52"}
{"smiles": "Cc1cc(-c2nccs2)nc(C2CCN(Cc3cccs3)CC2)n1", "percent effect": -5.888}
{"smiles": "COCCC(=O)N1CC2(CCN(Cc3ccoc3)C2)C1", "percent effect": 3.806}
{"smiles": "Cn1cc(C(=O)N2CCCC(Cc3cccc4ncccc34)C2)cn1", "stereo": "stereo not given", "percent effect": 14.39}
{"smiles": "CN(Cc1nnc(C2CC2)n1C)C1CCN(Cc2ccncc2)C1", "stereo": "stereo not given", "percent effect": 14.68}
{"smiles": "Cc1ccc(N2CC(c3nccc(C)n3)C2)nn1", "percent effect": 6.137}

Some entries from above, unchanged:

{"smiles": "Cc1cnc(CN2CCC(N(C)Cc3nnc(C4CC4)n3C)C2)cn1", "stereo": "stereo not given", "percent effect": -1.845}
{"smiles": "O=C(Cc1cccc(O)c1)N1CCC2(CC1)c1ccccc1CC2O", "stereo": "stereo not given", "percent effect": 8.158}
{"smiles": "Cc1cccc(C2(C(=O)NCC(C)CN3CCCC3=O)CC2)c1", "stereo": "stereo not given", "percent effect": -10.88}